Results are given in words; binding and its absence hold for the method and conditions named. Some results given as binding are weak or reduced against the parent protein; the word gives no strength.
Assays:
[1] = target: VscY (V. harveyi) (V. harveyi) (UniProt Q6QVR8); assay: two-hybrid
[2] = target: AscY (A. salmonicida) (A. salmonicida) (UniProt Q8GA92); assay: two-hybrid

| Substance | binding [1] | binding [2] |
| --- | --- | --- |
| VscX (V. harveyi) (from UniProt Q6QVR7 1-125) | binds | – |
| AscX (A. salmonicida) (from UniProt Q8GA93 1-121) | – | binds |

— paper PMC5864894
